{"source": "PubChem BioAssay AID2685", "about": "(National Center for Advancing Translational Sciences (NCATS), 2010)", "note": "About 2,100 (0.66%) of roughly 320,000 compounds were called active. Inconclusive means that the source gave no clear call. Such entries were picked first, then a sample of the others. Calls come from the whole dose curve; as a rule, active = well fitted inhibition curve with a large enough effect in the signal ratio, with a control signal flat (not every such curve was filed as active); inconclusive = small, poorly fitted or top-dose-only effect, or effect the other way, or a change in a side signal; inactive = flat fitted curve, though single readings scatter; the % refers to the signal ratio. A potency beside an inconclusive call is a rough fit, not a confirmed value. % is set by controls: 0 for no effect and ±100 for the full control effect; potency is the fitted concentration of half-maximal effect."}
{"experiment": "qHTS Assay for Lipid Storage Modulators in Drosophila S3 Cells", "conditions": "BODIPY lipid droplet fluorescence, 18-24 h, cells fed with added oleic acid; lipid storage change, negative = inhibition: at 46.1 µM (top of the series) unless noted", "procedure,_shortened": "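Laser-scanning cytometry quantifies lipid droplet accumulation (500–530 nm total intensity; droplet/cell object ratio) in oleic acid-fed (400 uM added) Drosophila S3 cells treated with a concentration series. 20 uM Triacsin C defined 100% inhibition.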"}
{"compound": "COC(=O)c1cc(Cl)c(NC(=O)c2ccco2)cc1OC", "lipid storage change, negative = inhibition": "inconclusive: 20.8%"}
{"compound": "Cc1cccc(N(C)S(=O)(=O)c2ccc3[nH]c(=O)c(=O)[nH]c3c2)c1", "lipid storage change, negative = inhibition": "inactive"}
{"compound": "Cn1c(=O)n(CC(N)=O)c(=O)c2c1nc1n2CCCN1Cc1ccccc1", "lipid storage change, negative = inhibition": "inconclusive: 21.9%"}
{"compound": "CCCC(C)NC(=O)Cn1c(=O)c2c(ncn2CCC(C)C)n(Cc2ccccc2)c1=O", "note": "(stereo not drawn)", "Potency": "inconclusive: 6.51 µM [activator, single point]"}
{"compound": "Cc1nc2ccccc2nc(C)c1=NOCc1cccc(Cl)c1", "lipid storage change, negative = inhibition": "inconclusive: 24.3%"}
{"compound": "C=CCC(C(=O)Oc1c(C(C)(C)C)cc(C)cc1C(C)(C)C)c1ccccc1", "note": "(stereo not drawn)", "lipid storage change, negative = inhibition": "inconclusive: -50.2%"}
{"compound": "CCN(CC)c1ccc(NC(=O)c2ccc(Br)o2)c(C)c1", "Potency": "inconclusive: 6.51 µM [activator, partial curve, poor fit]"}
{"compound": "Cc1ccc(CNC(=O)CCc2nnc3ccc(N4CCC5(CC4)OCCO5)nn23)cc1", "lipid storage change, negative = inhibition": "inconclusive: -16.1%"}
{"compound": "O=C(O)CC(c1cccc([N+](=O)[O-])c1)N1Cc2ccccc2C1=O", "note": "(stereo not drawn)", "lipid storage change, negative = inhibition": "inconclusive: -21%"}
{"compound": "O=[N+]([O-])c1ccc(Cc2nnc(-c3ccccc3Cl)o2)cc1", "lipid storage change, negative = inhibition": "inconclusive: 6.42%"}
{"compound": "c1ccc2c(c1)nnn2CNc1nccs1", "lipid storage change, negative = inhibition": "inactive"}
{"compound": "Cc1nnc(SCCC#N)n(CCC#N)c1=O", "lipid storage change, negative = inhibition": "inconclusive: 19.2%"}
{"compound": "O=C(c1ccc(CSc2nc3ccncc3[nH]2)cc1)N1CCCCC1", "lipid storage change, negative = inhibition": "inconclusive: 25.7%"}
{"compound": "COc1cccc(NC(=O)Cc2ccccc2)c1", "Potency": "inconclusive: 4.61 µM [falling, single point]"}
{"compound": "Cn1c2c(c3ccccc31)CC/C2=N\\O", "lipid storage change, negative = inhibition": "inactive"}
{"compound": "CCCCC(=O)NC(Nc1ccc(C)cn1)(C(=O)OCC)C(F)(F)F", "note": "(stereo not drawn)", "Potency": "inconclusive: 0.0046 µM [falling, full curve, poor fit]"}
{"compound": "COc1ccc(NC(=O)c2noc(C(C)C)c2[N+](=O)[O-])cc1", "lipid storage change, negative = inhibition": "inconclusive: 8.19%"}
{"compound": "Cc1cccc(NC(=O)c2cc(Cl)ccc2[N+](=O)[O-])c1", "lipid storage change, negative = inhibition": "inactive"}
{"compound": "Cc1ncc([N+](=O)[O-])n1CC(=O)Nc1ccc2c(c1)OCO2", "lipid storage change, negative = inhibition": "inconclusive: -37.4%"}
{"compound": "O=C(N/N=C/c1cccnc1)c1ccc([N+](=O)[O-])cc1Cl", "lipid storage change, negative = inhibition": "inconclusive: -20.8%"}
{"compound": "O=[N+]([O-])c1ccc2c(c1)nc1n2CCN(C2CCCCC2)C1", "lipid storage change, negative = inhibition": "inconclusive: 9.98%"}
{"compound": "CC(OC(=O)c1ccc([N+](=O)[O-])s1)C(=O)Nc1ncc(Cl)cc1Cl", "note": "(stereo not drawn)", "Potency": "inconclusive: 29.1 µM [falling, single point]"}
{"compound": "c1ccc2cc3[nH]c(CN4CCCCC4)nc3cc2c1", "lipid storage change, negative = inhibition": "inconclusive: -41%"}
{"compound": "O=C(COC(=O)c1ccc(O)cc1)Nc1ccccc1[N+](=O)[O-]", "lipid storage change, negative = inhibition": "inconclusive: -0.0817%"}
{"compound": "COC(=O)c1cccc(Nc2cc(C)nc(-c3ccccc3O)n2)c1", "lipid storage change, negative = inhibition": "inconclusive: 24.3%"}
{"compound": "CSc1ccc(CN(C)CC(=O)Nc2ccccc2C(=O)NC2CC2)cc1", "lipid storage change, negative = inhibition": "inconclusive: 8.06%"}
{"compound": "O=C(c1ccccc1)c1ccc2nc(-c3ccc(NC(=O)c4ccccc4F)cc3)[nH]c2c1", "lipid storage change, negative = inhibition": "inconclusive: -64.1%"}
{"compound": "CC(=O)N1CCN(CC(=O)Nc2ccccc2C(=O)NCc2ccc(C)cc2)CC1", "Potency": "inconclusive: 0.651 µM [activator, full curve]"}
{"compound": "CCN(C(=O)CSc1nnc(-c2cccs2)n1N)c1c(N)n(Cc2ccccc2)c(=O)[nH]c1=O", "lipid storage change, negative = inhibition": "inconclusive: 7.66%"}
{"compound": "CCOC(=O)Cc1csc(NC(=O)c2ccc(F)cc2)n1", "lipid storage change, negative = inhibition": "inactive"}
{"compound": "CCOC(=O)c1ccccc1N=Cc1c(O)c2ccccc2oc1=O", "Potency": "inconclusive: 29.1 µM [activator, single point]"}
{"compound": "O=C(NC1CCCCC1)C(c1ccc(F)cc1)N(Cc1cccs1)C(=O)CN1C(=O)c2ccccc2S1(=O)=O", "note": "(stereo not drawn)", "Potency": "inconclusive: 1.16 µM [falling, single point]"}
{"compound": "COC(=O)c1ccccc1NC(=O)Nc1nnc(N2CCC(C)CC2)s1", "lipid storage change, negative = inhibition": "inconclusive: 10.9%"}
{"compound": "NC(=O)C1CCN(c2cc(Cl)nc(N)n2)CC1", "lipid storage change, negative = inhibition": "inconclusive: -71.7%"}
{"compound": "CCCCCCSc1nsc(NC(=O)CC(C)C)n1", "lipid storage change, negative = inhibition": "inconclusive: -9.1%"}
{"compound": "O=C(O)CSc1cc(NS(=O)(=O)c2ccc(Br)cc2)c2ccccc2c1O", "Potency": "inconclusive: 29.1 µM [cytotoxic, single point]"}
{"compound": "CC(C)n1cc(CN2CCC(n3nccc3NC(=O)C3CCCC3)CC2)cn1", "lipid storage change, negative = inhibition": "inconclusive: -9.19%"}
{"compound": "Cc1ccccc1NC(=O)Cn1c(C)nc2ccc(N)cc2c1=O", "lipid storage change, negative = inhibition": "inconclusive: 9.16%"}
{"compound": "O=C(COC(=O)c1cccc(N2C(=O)c3ccccc3C2=O)c1)Nc1ccccc1", "lipid storage change, negative = inhibition": "inconclusive: 4.1%"}
{"compound": "CN1C(=O)c2ccc(N3CCCC3)cc2C1=O", "lipid storage change, negative = inhibition": "inconclusive: 41.1%"}
{"compound": "Cc1ccc(CN2CCSc3ccc(C(=O)NC4CCCC4)cc32)cc1", "lipid storage change, negative = inhibition": "inconclusive: 21%"}
{"compound": "O=C(O)CN1C(=O)NC2(CCc3ccccc32)C1=O", "note": "(stereo not drawn)", "lipid storage change, negative = inhibition": "inconclusive: 348%"}
{"compound": "O=C(Nc1ccc(Cl)c(S(=O)(=O)N2CCOCC2)c1)c1ccc2c(c1)OCCO2", "lipid storage change, negative = inhibition": "inactive"}
{"compound": "CC(=O)c1cccc(S(=O)(=O)Nc2ccc(N3CCOCC3)cc2)c1", "lipid storage change, negative = inhibition": "inconclusive: 142%"}
{"compound": "CC(C)Cn1c(N)c(C(=O)COC(=O)Cc2cccs2)c(=O)n(C)c1=O", "lipid storage change, negative = inhibition": "inconclusive: -90.6%"}
{"compound": "CC(OC(=O)C1CCN(S(=O)(=O)c2ccccc2C(F)(F)F)CC1)C(=O)N(C)Cc1ccccc1", "note": "(stereo not drawn)", "Potency": "inconclusive: 18.4 µM [falling, partial curve]"}
{"compound": "O=C(O)CSCc1nc2scc(-c3ccccc3)c2c(=O)[nH]1", "lipid storage change, negative = inhibition": "inconclusive: -26.1%"}
{"compound": "O=C(Nc1ccc(N2CCOCC2)cc1N1CCOCC1)c1ncoc1-c1cccc(F)c1", "lipid storage change, negative = inhibition": "inconclusive: 28.6%"}
{"compound": "Cc1cccc(C)c1NCC(=O)N1CCN(Cc2ccccc2)CC1", "lipid storage change, negative = inhibition": "inconclusive: 9.65%"}
{"compound": "Cc1nc2nc(C)c(CCC(=O)Nc3ccc4c(c3)OCO4)c(C)n2n1", "lipid storage change, negative = inhibition": "inconclusive: 26.9%"}
{"compound": "Cc1cccc(OCC(=O)Nc2ccc3c(c2)OCO3)c1C", "lipid storage change, negative = inhibition": "inconclusive: 12%"}
{"compound": "CCOC(=O)c1ccccc1NC(=O)COC(=O)CCC(=O)c1ccc(C)cc1", "lipid storage change, negative = inhibition": "inconclusive"}
{"compound": "O=C(N/N=C/c1ccc(O)cc1)c1cc(-c2ccccc2)nc2ccccc12", "lipid storage change, negative = inhibition": "inconclusive: -13.2%"}
{"compound": "CC(Sc1ccc(Cl)cc1)C(=O)NCC1CCCO1", "note": "(stereo not drawn)", "lipid storage change, negative = inhibition": "inconclusive: -10.6%"}
{"compound": "COc1ccc2nc(NC(=O)c3cccc(-c4cc5ccccc5oc4=O)c3)sc2c1", "lipid storage change, negative = inhibition": "inconclusive: -6.47%"}
{"compound": "CCOC(=O)CCC(NC(=O)CC(=O)NC(CCC(=O)OCC)C(=O)OCC)C(=O)OCC", "note": "(stereo not drawn)", "lipid storage change, negative = inhibition": "inconclusive: -41.1%"}
{"compound": "C/C(=N\\NC(=S)Nc1c(C)cccc1C)c1cc2ccccc2o1", "lipid storage change, negative = inhibition": "inconclusive: 33.5%"}
{"compound": "O=C(CCN1CCN(c2ccccc2)CC1)Nc1cccc(Br)c1", "lipid storage change, negative = inhibition": "inconclusive: 22.1%"}
{"compound": "Cc1ccc(SCc2c(-c3ccccc3)nn(C)c2Cl)cc1", "lipid storage change, negative = inhibition": "inconclusive: 10.5%"}
{"compound": "COc1ccc(Cl)cc1NC(=O)NCc1cccnc1", "lipid storage change, negative = inhibition": "inconclusive: -85.1%"}
{"compound": "CC1(NC(=O)Nc2ccccc2)CCS(=O)(=O)C1", "note": "(stereo not drawn)", "Potency": "inconclusive: 0.0052 µM [falling, full curve, poor fit]"}
{"compound": "CCCc1nc2n[nH]c(N)c2c2c1CCC2", "Potency": "inconclusive: 3.66 µM [activator, single point]"}
{"compound": "COC(=O)c1ccc(NC(=O)CNCc2ccncc2)cc1", "lipid storage change, negative = inhibition": "inconclusive: 20.1%"}
{"compound": "Cc1ccc2oc3c(c(=O)c2c1)C(c1cccc(O)c1)N(c1ccccn1)C3=O", "note": "(stereo not drawn)", "lipid storage change, negative = inhibition": "inconclusive: 3.27%"}
{"compound": "COc1ccccc1-c1n[nH]c2c1[C@H](C)CC[C@H]2C(C)C", "lipid storage change, negative = inhibition": "inconclusive: -9.54%"}
{"compound": "Cc1cccc(C)c1NC(=S)N/N=C/c1ccc(OCCC(C)C)cc1", "lipid storage change, negative = inhibition": "inconclusive: -67.2%"}
{"compound": "CCc1cc(=O)[nH]c(SCCc2ccccc2)n1", "lipid storage change, negative = inhibition": "inconclusive: -1.83%"}
{"compound": "COc1ccc(/C=N/Nc2c(Cl)cc(Cl)cc2Cl)cc1CN1CCOCC1", "Potency": "inconclusive: 29.1 µM [falling, single point]"}
{"compound": "Cc1ccc(C(=O)/C=C/c2cn(CN3CCN(C)CC3)c3ccccc23)cc1", "lipid storage change, negative = inhibition": "inconclusive: 316%"}
{"compound": "COc1ccccc1CNC(=O)CN1CCC(NC(=O)c2ccccc2F)CC1", "lipid storage change, negative = inhibition": "inconclusive: -43.4%"}
{"compound": "COc1cccc(N2CCN(c3ccc4nnc(CCC(=O)Nc5ncccc5C)n4n3)CC2)c1", "Potency": "inconclusive: 1.3 µM [falling, full curve]"}
{"compound": "COc1ccc(N2C(=O)CC(N(CCc3ccccc3)C(=O)/C=C/C(=O)O)C2=O)cc1", "note": "(stereo not drawn)", "Potency": "inconclusive: 25.9 µM [activator, single point]"}
{"compound": "CCCCCNC(=O)C1CC(=O)OC12CCCCC2", "note": "(stereo not drawn)", "lipid storage change, negative = inhibition": "inconclusive: 24.5%"}
{"compound": "O=C(Nc1cccnc1)c1sc(Nc2ccccc2)nc1-c1ccccc1", "lipid storage change, negative = inhibition": "inconclusive: 25.7%"}
{"compound": "Cc1cc2occ(CC(=O)N(C)CC(=O)Nc3cccc(F)c3)c2cc1C", "lipid storage change, negative = inhibition": "inconclusive: -100%"}
{"compound": "NC(=O)CC(NC(=O)Cc1cccc2ccccc12)c1ccc(N2CCN(c3ccccc3)CC2)c([N+](=O)[O-])c1", "note": "(stereo not drawn)", "lipid storage change, negative = inhibition": "inconclusive: 14.8%"}
{"compound": "O=C(CSc1nnc(-c2ccc(OC(F)F)cc2)o1)N1CCOCC1", "Potency": "inconclusive: 6.51 µM [rising, single point]"}
{"compound": "CCCC1(C(=O)OC)NC(c2ccco2)C2C(=O)N(c3ccc(C)cc3)C(=O)C21", "note": "(stereo not drawn)", "lipid storage change, negative = inhibition": "inactive"}
{"compound": "O=C(NC1CCSc2ccccc21)c1ccccc1F", "note": "(stereo not drawn)", "lipid storage change, negative = inhibition": "inconclusive: -18.8%"}
{"compound": "COc1ccccc1C(c1nnnn1C(C)C)N1CCN(C(=O)c2ccco2)CC1", "note": "(stereo not drawn)", "lipid storage change, negative = inhibition": "inconclusive: 35.6%"}
{"compound": "Clc1ccccc1CN1CCc2sccc2C1", "lipid storage change, negative = inhibition": "inconclusive: -6.5%"}
{"compound": "O=C(COC(=O)COc1ccccc1)NCCC1=CCCCC1", "lipid storage change, negative = inhibition": "inconclusive: -13.7%"}
{"compound": "COc1ccc(-c2cc(=Nc3c(C)n(C)n(-c4ccccc4)c3=O)c3ccccc3o2)cc1", "lipid storage change, negative = inhibition": "inconclusive: 9.5%"}
